Measurements taken from PubChem BioAssay AID493014 (National Center for Advancing Translational Sciences (NCATS), 2011).
The campaign covered roughly 340,000 compounds. About 170 (0.05%) were called active. This list was built around the results that the source calls inconclusive (neither active nor inactive); the mix of calls is not that of the screen. Calls come from the whole dose curve; as a rule, active = well fitted inhibition curve with a large enough effect in the signal ratio, with a control signal flat (not every such curve was filed as active); inconclusive = small, poorly fitted or top-dose-only effect, or effect the other way, or a change in a side signal; inactive = flat fitted curve, though single readings scatter; the % refers to the signal ratio. Where the call is inconclusive, the potency comes from a doubtful curve fit.

Assay: qHTS Assay to Find Inhibitors of Chronic Active B-Cell Receptor Signaling;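 for activity change, negative = inhibition: plate controls were basal doxycycline-induced cells for no effect and cells given 10 µM MG132 for full effect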
Conditions: ABC-DLBCL IkBa-CBG/CBR reporter, luminescence ratio (green luciferase fused to IkBa over red control in TMD8 lymphoma cells), 4 h; activity change, negative = inhibition: at 46.1 µM (top of the series)
Outline: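 Doxycycline induced both beetle luciferases in TMD8 lymphoma cells; IKK-driven degradation limits the IkappaBalpha-fused green signal, while red luminescence normalises for cell number and nonspecific effects. Compounds tested up to 46 uM, 4 hrs.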
Potency is the fitted concentration of half-maximal effect.

| SMILES | Potency | activity change, negative = inhibition |
| --- | --- | --- |
| O=C(N/N=C/c1ccc(F)cc1)c1ccccc1 | inconclusive: 4.47 µM [falling, partial curve] |  |
| C#CCOC(=O)Nc1ccc(=O)n(Cc2c(Cl)cccc2Cl)c1 |  | inconclusive: 8.16% |
| CCOc1ccc(NC(=O)CN2C(=O)C3CC=CCC3C2=O)cc1 (stereo unspecified) |  | inconclusive: 2.99% |
| CC(C)Cn1c2c(c(O)c(C(=O)Nc3ncccc3O)c1=O)CCCC2 | inconclusive: 2.31 µM [rising, partial curve, poor fit] |  |
| O=C(CN(C(=O)CNC(=O)c1ccco1)c1ccc(F)cc1)NC1CCCCC1 |  | inconclusive: 24.1% |
| Cc1cc(NS(=O)(=O)c2ccc(NC(=O)/C=C/c3cccc(Cl)c3)cc2)no1 | inconclusive: 25.1 µM [falling, single point] |  |
| CCOC(=O)C1=C(CC)Nc2ccccc2N=C1NC(=O)c1ccc(S(=O)(=O)N2CCOCC2)cc1 |  | inconclusive: 3.85% |
| Cc1ccc(C(O)(c2ccccc2)c2ccccc2C(C)N(C)C)c(C)c1 (stereo unspecified) |  | inconclusive: -16.5% |
| COC(=O)CNc1cccc(C(F)(F)F)c1 |  | inconclusive: -12.4% |
| CC(CN(C)C)CN1c2ccccc2Sc2ccccc21 (stereo unspecified) |  | inconclusive: -26.8% |
| CC(=O)/C(N=Nc1ccc(SC(F)F)cc1)=C(\C)O |  | inconclusive: 3.29% |
| COC(=O)c1ccccc1NC(=O)NCc1ccco1 |  | inconclusive: -9.12% |
| CCOC(=O)CN=C(NS(=O)(=O)c1ccc(Cl)cc1)c1ccccc1 |  | inconclusive: 14.8% |
| Cc1onc(-c2c(F)cccc2Cl)c1C(=O)NC(=S)NC1CCSC1=O (stereo unspecified) |  | inactive: -0.674% |
| COc1cccc(/C=N/NC(=O)c2cnccn2)c1OC | inconclusive: 35.5 µM [falling, single point] |  |
| Cn1ncc2c(=O)n(CC(=O)NC34CC5CC(CC(C5)C3)C4)cnc21 | inconclusive: 16.4 µM [falling, partial curve] |  |
| CC(=O)c1c(N2CCCC2)nc(=S)n(-c2ccccc2)c1C |  | inconclusive: -14.1% |
| O=C(Nc1ccc2c(c1)oc1ccccc12)N1CCOCC1 | inconclusive: 25.1 µM [falling, single point] |  |
| O=C(Cn1nnc2c(cnn2-c2ccc(F)cc2)c1=O)Nc1ccccc1C(F)(F)F |  | inactive: -15% |
| CN(C)S(=O)(=O)n1cc(/C=C(\NC(=O)c2ccccc2Cl)C(=O)NCCCn2ccnc2)c2ccccc21 |  | inactive: 0.653% |
| Cc1cc(Cl)ccc1OCc1nnc2n1CCCCC2 |  | inconclusive: -3.5% |
| CCc1ccc(C2c3[nH]c4ccccc4c3CCN2C(=O)CN2CCN(CC)CC2)cc1 (stereo unspecified) | inconclusive: 11.2 µM [falling, partial curve] |  |
| CSc1cnn(Cc2ccccc2)c(=O)c1SCc1ccccc1 | inconclusive: 29.1 µM [falling, single point] |  |
| CCOC(=O)Cc1csc(NC(=O)c2cc3c(s2)CCCC3)n1 | inconclusive: 25.9 µM [falling, partial curve] |  |
| O=C(Cn1c(=O)oc2cc(S(=O)(=O)N3CCCC3)ccc21)Nc1cccc(C(F)(F)F)c1 |  | inactive: 9.26% |
| Cc1cccc(NC(=O)CSc2n[nH]c(-c3ccncc3)n2)c1C |  | inactive: 1.75% |

Complete entries from above.
CC(CN(C)C)CN1c2ccccc2Sc2ccccc21 (stereo unspecified) in the list: activity change, negative = inhibition: inconclusive: -26.8%
Cc1cccc(NC(=O)CSc2n[nH]c(-c3ccncc3)n2)c1C in the list: activity change, negative = inhibition: inactive: 1.75%

Further structures follow:

| SMILES | Potency | activity change, negative = inhibition |
| --- | --- | --- |
| O=C(O)/C=C/C(=O)NNC(=O)c1cc(-c2ccccc2)n[nH]1 |  | inconclusive: 0.523% |
| O=C(CSc1nnc(-c2ccccc2)n1-c1ccccc1)c1cccs1 | inconclusive: 3.55 µM [rising, partial curve, poor fit] |  |
| CCOC(=O)C1CCN(S(=O)(=O)c2cc3c4c(c2)CC(=O)N4CCC3)CC1 |  | inconclusive: 18.4% |
| CCn1c(SCC(=O)Nc2ccc3c(c2)OCO3)nnc1C1CC1 |  | inactive: -1.66% |
| CC(=O)c1sc(-c2ccccc2)cc1NS(=O)(=O)c1ccc(C)cc1 |  | inactive: -17.3% |
| Cc1cc(C)nc(-n2nc(C)cc2NC(=O)CN2CCCC2)n1 |  | inactive: 1.3% |
| CCN(CC)S(=O)(=O)c1ccc(NN=C2CCN(C)CC2)c([N+](=O)[O-])c1 | inconclusive: 15.8 µM [falling, partial curve, poor fit] |  |
| O=C1C(c2cc(=O)c3ccccc3[nH]2)=C(O)c2ccccc21 | inconclusive: 4.11 µM [rising, full curve, poor fit] |  |
| C=CCn1c(-c2csc3c2CCC(C)C3)n[nH]c1=S (stereo unspecified) | inconclusive: 23.1 µM [falling, single point] |  |
| CCOC(=O)c1c(C)c(C(=O)Nc2ccc3c(c2)OCO3)c(C)n1C |  | inconclusive: 2.09% |
| O=C(COC(=O)c1ccc(Cl)c(S(=O)(=O)N2CCCC2)c1)NCc1ccccc1 |  | inconclusive: -3.3% |
| S=C(NCc1ccccc1Cl)Nc1ccccc1Cl |  | inconclusive: -3.83% |
| Cc1nn(-c2ccc(Cl)cc2)c(=O)c2ccccc12 |  | inconclusive: -20.4% |
| CC(C)CN1C(=O)C(=O)N(CC(=O)c2ccc3c(c2)CCCC3)C1=O |  | inconclusive: -1.94% |
| Cc1ccccc1Nc1sc(C(=O)c2ccccc2)c(N)c1C(=O)NCc1ccc(Cl)cc1 |  | inconclusive: -17.7% |
| CSc1ccc(CN2CCN(S(=O)(=O)Cc3ccccc3)CC2)cc1 |  | inconclusive: 5.81% |
| CCN1CCN(c2sc(S(C)(=O)=O)nc2S(=O)(=O)c2ccc(C)cc2)CC1 |  | inactive: -11.9% |
| COc1cc2nc(-c3ccccc3)nc(N3CCCC3)c2cc1OC | inconclusive: 0.1 µM [falling, full curve, poor fit] |  |
| O=C(CSCC(=O)Nc1ccc2ccccc2c1)NCc1ccccc1 |  | inconclusive: -3.07% |
| COc1cc2c(cc1OC)[C@@H](NC(=O)CCC1CCCCC1)[C@H](O)C2 |  | inactive: -6.46% |
| N#Cc1ccccc1NC(=O)c1ccc2c(Cl)c3c(nc2c1)CCCC3 |  | inactive: -18.4% |
| CCCCN(C(=O)Cn1ncc(Cl)c(Cl)c1=O)c1c(N)n(CC(C)C)c(=O)[nH]c1=O |  | inconclusive: 2.38% |
| COc1ccc(N2CC(C(=O)NCc3n[nH]c(=O)c4ccccc34)CC2=O)cc1 (stereo unspecified) |  | inconclusive: 3.6% |
| O=C(c1cccnc1)N(c1cc2sc(=O)oc2c2ccccc12)S(=O)(=O)c1ccccc1 | inconclusive: 20.6 µM [falling, partial curve] |  |
| COc1cccc(CN2CCNC(=O)C2CC(=O)N2CCOc3ccccc3C2)c1OC (stereo unspecified) | inconclusive: 35.5 µM [falling, single point] |  |
